Assay results reported in publication PMC10564934.
Results are given in words; binding and its absence hold for the method and conditions named. Binding seen in cells or lysates may run through a third protein. A result given as binding can be weak or reduced; the word gives no strength. For some of these results: Sequences can lack the tags named with a protein.

By UniProt entry, the sequences of proteins in these tests, tags left out. Where a name states a change or a piece, a line headed by the entry shows the natural chain unless it says otherwise.
UniProt P35613: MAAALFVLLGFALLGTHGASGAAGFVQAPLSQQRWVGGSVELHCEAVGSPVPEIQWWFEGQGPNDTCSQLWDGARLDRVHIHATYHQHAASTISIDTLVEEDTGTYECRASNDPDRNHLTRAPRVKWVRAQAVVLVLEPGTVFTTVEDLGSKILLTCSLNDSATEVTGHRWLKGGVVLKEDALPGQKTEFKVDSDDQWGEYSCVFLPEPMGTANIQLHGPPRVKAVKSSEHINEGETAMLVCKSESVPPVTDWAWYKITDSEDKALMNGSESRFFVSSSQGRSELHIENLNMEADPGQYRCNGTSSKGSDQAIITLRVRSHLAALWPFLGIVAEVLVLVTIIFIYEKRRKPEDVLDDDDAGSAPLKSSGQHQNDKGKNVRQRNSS

Assays:
[1] = target: T1, MCT4 (monocarboxylate transporter 4), endogenous (human (endogenous in A549 and H1752)) (UniProt O15427); assay: proximity ligation; PLA of MCT4 and CD147 in cells with SYVN1 knockdown; cells and antibodies not named
T1 sequence: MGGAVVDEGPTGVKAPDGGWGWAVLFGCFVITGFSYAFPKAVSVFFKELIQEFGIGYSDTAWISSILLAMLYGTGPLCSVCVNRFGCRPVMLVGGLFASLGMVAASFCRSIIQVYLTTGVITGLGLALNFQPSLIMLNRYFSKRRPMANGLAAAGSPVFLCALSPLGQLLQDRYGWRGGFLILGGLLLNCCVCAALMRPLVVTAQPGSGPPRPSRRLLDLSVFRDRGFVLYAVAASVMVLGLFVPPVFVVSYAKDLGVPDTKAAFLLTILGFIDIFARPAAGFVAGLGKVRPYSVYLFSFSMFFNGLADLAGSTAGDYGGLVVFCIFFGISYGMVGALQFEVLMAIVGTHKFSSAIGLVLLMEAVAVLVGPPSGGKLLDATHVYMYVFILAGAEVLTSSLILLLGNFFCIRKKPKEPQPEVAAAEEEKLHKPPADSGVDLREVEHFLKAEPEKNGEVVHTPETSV

[2] = target: T2, Flag-tagged MCT4 (monocarboxylate transporter 4), full length (UniProt O15427); assay: proximity ligation; PLA in transfected HEK293T cells with anti-Flag and anti-His antibodies, with or without SYVN1 overexpression
T2 sequence: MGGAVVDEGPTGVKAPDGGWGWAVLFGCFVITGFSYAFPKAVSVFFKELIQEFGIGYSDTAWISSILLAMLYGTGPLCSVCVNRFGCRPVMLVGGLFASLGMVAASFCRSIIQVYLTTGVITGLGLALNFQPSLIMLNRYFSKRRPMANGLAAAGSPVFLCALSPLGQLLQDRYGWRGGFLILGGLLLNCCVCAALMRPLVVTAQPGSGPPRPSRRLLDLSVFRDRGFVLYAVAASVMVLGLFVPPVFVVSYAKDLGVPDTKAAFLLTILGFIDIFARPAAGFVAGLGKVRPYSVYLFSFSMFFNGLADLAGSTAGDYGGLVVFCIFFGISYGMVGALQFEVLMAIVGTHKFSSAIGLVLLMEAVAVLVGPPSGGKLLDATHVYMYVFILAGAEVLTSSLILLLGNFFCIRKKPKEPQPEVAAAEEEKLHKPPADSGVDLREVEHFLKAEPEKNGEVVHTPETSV

[3] = target: T2, Flag-tagged MCT4 (monocarboxylate transporter 4), full length; assay: co-IP; HEK293T transfected with Flag-MCT4 and tagged CD147, with or without SYVN1 overexpression, 48 h; IP with anti-Flag antibody, immunoblot
tagged CD147 = tagged CD147 (UniProt P35613); assay: pull-down; HEK293T transfected with Flag-MCT4 and tagged CD147, with or without SYVN1 overexpression, 48 h; lysates pulled down by Ni-NTA agarose beads, immunoblot

CD147 in cells with SYVN1 knockdown (from UniProt P35613-2)
binding [1]: binds

tagged CD147 (from UniProt P35613-2)
binding [2]: binds | binding [3]: binds

B1: Flag-tagged MCT4 (monocarboxylate transporter 4), full length (protein, UniProt O15427 1-465)
chain: MGGAVVDEGPTGVKAPDGGWGWAVLFGCFVITGFSYAFPKAVSVFFKELIQEFGIGYSDTAWISSILLAMLYGTGPLCSVCVNRFGCRPVMLVGGLFASLGMVAASFCRSIIQVYLTTGVITGLGLALNFQPSLIMLNRYFSKRRPMANGLAAAGSPVFLCALSPLGQLLQDRYGWRGGFLILGGLLLNCCVCAALMRPLVVTAQPGSGPPRPSRRLLDLSVFRDRGFVLYAVAASVMVLGLFVPPVFVVSYAKDLGVPDTKAAFLLTILGFIDIFARPAAGFVAGLGKVRPYSVYLFSFSMFFNGLADLAGSTAGDYGGLVVFCIFFGISYGMVGALQFEVLMAIVGTHKFSSAIGLVLLMEAVAVLVGPPSGGKLLDATHVYMYVFILAGAEVLTSSLILLLGNFFCIRKKPKEPQPEVAAAEEEKLHKPPADSGVDLREVEHFLKAEPEKNGEVVHTPETSV
binding (tagged CD147): binds
